No constants are given. Whether binding was seen depends on the method and setting. A result given as binding can be weak or reduced; the word gives no strength.
B1: Atto488-labelled prf.GLFG_(70×12) (domain or fragment)
chain: GGLFGGNTQPATGGLFGGNTQPATGGLFGGNTQPATGGLFGGNTQPATGGLFGGNTQPATGGLFGGNTQPATGGLFGGNTQPATGGLFGGNTQPATGGLFGGNTQPATGGLFGGNTQPATGGLFGGNTQPATGGLFGGNTQPATGGLFGGNTQPATGGLFGGNTQPATGGLFGGNTQPATGGLFGGNTQPATGGLFGGNTQPATGGLFGGNTQPATGGLFGGNTQPATGGLFGGNTQPATGGLFGGNTQPATGGLFGGNTQPATGGLFGGNTQPATGGLFGGNTQPATGGLFGGNTQPATGGLFGGNTQPATGGLFGGNTQPATGGLFGGNTQPATGGLFGGNTQPATGGLFGGNTQPATGGLFGGNTQPATGGLFGGNTQPATGGLFGGNTQPATGGLFGGNTQPATGGLFGGNTQPATGGLFGGNTQPATGGLFGGNTQPATGGLFGGNTQPATGGLFGGNTQPATGGLFGGNTQPATGGLFGGNTQPATGGLFGGNTQPATGGLFGGNTQPATGGLFGGNTQPATGGLFGGNTQPATGGLFGGNTQPATGGLFGGNTQPATGGLFGGNTQPATGGLFGGNTQPATGGLFGGNTQPATGGLFGGNTQPATGGLFGGNTQPATGGLFGGNTQPATGGLFGGNTQPATGGLFGGNTQPATGGLFGGNTQPATGGLFGGNTQPATGGLFGGNTQPATGGLFGGNTQPATGGLFGGNTQPATGGLFGGNTQPATGGLFGGNTQPATGGLFGGNTQPATGGLFGGNTQPATGGLFGGNTQPATGGLFGGNTQPATGGLFGGNTQPATGGLFGGNTQPATGGLFGGNTQPATC
modifications: Atto488-maleimide on the additional C-terminal cysteine
B2: Atto488-labelled prf.GLFG_(26×12) (domain or fragment)
chain: GGLFGGNTQPATGGLFGGNTQPATGGLFGGNTQPATGGLFGGNTQPATGGLFGGNTQPATGGLFGGNTQPATGGLFGGNTQPATGGLFGGNTQPATGGLFGGNTQPATGGLFGGNTQPATGGLFGGNTQPATGGLFGGNTQPATGGLFGGNTQPATGGLFGGNTQPATGGLFGGNTQPATGGLFGGNTQPATGGLFGGNTQPATGGLFGGNTQPATGGLFGGNTQPATGGLFGGNTQPATGGLFGGNTQPATGGLFGGNTQPATGGLFGGNTQPATGGLFGGNTQPATGGLFGGNTQPATGGLFGGNTQPATC
modifications: Atto488-maleimide on the additional C-terminal cysteine
B3: Atto488-labelled prf.GLFG_(7×12) (domain or fragment)
chain: GGLFGGNTQPATGGLFGGNTQPATGGLFGGNTQPATGGLFGGNTQPATGGLFGGNTQPATGGLFGGNTQPATGGLFGGNTQPATC
modifications: Atto488-maleimide on the additional C-terminal cysteine
B4: Atto488-labelled prf.GLFG_(52×12) (domain or fragment)
chain: GGLFGGNTQPATGGLFGGNTQPATGGLFGGNTQPATGGLFGGNTQPATGGLFGGNTQPATGGLFGGNTQPATGGLFGGNTQPATGGLFGGNTQPATGGLFGGNTQPATGGLFGGNTQPATGGLFGGNTQPATGGLFGGNTQPATGGLFGGNTQPATGGLFGGNTQPATGGLFGGNTQPATGGLFGGNTQPATGGLFGGNTQPATGGLFGGNTQPATGGLFGGNTQPATGGLFGGNTQPATGGLFGGNTQPATGGLFGGNTQPATGGLFGGNTQPATGGLFGGNTQPATGGLFGGNTQPATGGLFGGNTQPATGGLFGGNTQPATGGLFGGNTQPATGGLFGGNTQPATGGLFGGNTQPATGGLFGGNTQPATGGLFGGNTQPATGGLFGGNTQPATGGLFGGNTQPATGGLFGGNTQPATGGLFGGNTQPATGGLFGGNTQPATGGLFGGNTQPATGGLFGGNTQPATGGLFGGNTQPATGGLFGGNTQPATGGLFGGNTQPATGGLFGGNTQPATGGLFGGNTQPATGGLFGGNTQPATGGLFGGNTQPATGGLFGGNTQPATGGLFGGNTQPATGGLFGGNTQPATGGLFGGNTQPATGGLFGGNTQPATGGLFGGNTQPATC
modifications: Atto488-maleimide on the additional C-terminal cysteine
B5: Atto488-labelled prf.GLFG_(13×12) (domain or fragment)
chain: GGLFGGNTQPATGGLFGGNTQPATGGLFGGNTQPATGGLFGGNTQPATGGLFGGNTQPATGGLFGGNTQPATGGLFGGNTQPATGGLFGGNTQPATGGLFGGNTQPATGGLFGGNTQPATGGLFGGNTQPATGGLFGGNTQPATGGLFGGNTQPATC
modifications: Atto488-maleimide on the additional C-terminal cysteine
B6: Atto488-labelled prf.GLFG_(37×12) (domain or fragment)
chain: GGLFGGNTQPATGGLFGGNTQPATGGLFGGNTQPATGGLFGGNTQPATGGLFGGNTQPATGGLFGGNTQPATGGLFGGNTQPATGGLFGGNTQPATGGLFGGNTQPATGGLFGGNTQPATGGLFGGNTQPATGGLFGGNTQPATGGLFGGNTQPATGGLFGGNTQPATGGLFGGNTQPATGGLFGGNTQPATGGLFGGNTQPATGGLFGGNTQPATGGLFGGNTQPATGGLFGGNTQPATGGLFGGNTQPATGGLFGGNTQPATGGLFGGNTQPATGGLFGGNTQPATGGLFGGNTQPATGGLFGGNTQPATGGLFGGNTQPATGGLFGGNTQPATGGLFGGNTQPATGGLFGGNTQPATGGLFGGNTQPATGGLFGGNTQPATGGLFGGNTQPATGGLFGGNTQPATGGLFGGNTQPATGGLFGGNTQPATGGLFGGNTQPATC
modifications: Atto488-maleimide on the additional C-terminal cysteine
B7: Atto488-labelled prf.GLFG_(18×12) (domain or fragment)
chain: GGLFGGNTQPATGGLFGGNTQPATGGLFGGNTQPATGGLFGGNTQPATGGLFGGNTQPATGGLFGGNTQPATGGLFGGNTQPATGGLFGGNTQPATGGLFGGNTQPATGGLFGGNTQPATGGLFGGNTQPATGGLFGGNTQPATGGLFGGNTQPATGGLFGGNTQPATGGLFGGNTQPATGGLFGGNTQPATGGLFGGNTQPATGGLFGGNTQPATC
modifications: Atto488-maleimide on the additional C-terminal cysteine
B8: Atto488-labelled prf.GLFG_(44×12) (domain or fragment)
chain: GGLFGGNTQPATGGLFGGNTQPATGGLFGGNTQPATGGLFGGNTQPATGGLFGGNTQPATGGLFGGNTQPATGGLFGGNTQPATGGLFGGNTQPATGGLFGGNTQPATGGLFGGNTQPATGGLFGGNTQPATGGLFGGNTQPATGGLFGGNTQPATGGLFGGNTQPATGGLFGGNTQPATGGLFGGNTQPATGGLFGGNTQPATGGLFGGNTQPATGGLFGGNTQPATGGLFGGNTQPATGGLFGGNTQPATGGLFGGNTQPATGGLFGGNTQPATGGLFGGNTQPATGGLFGGNTQPATGGLFGGNTQPATGGLFGGNTQPATGGLFGGNTQPATGGLFGGNTQPATGGLFGGNTQPATGGLFGGNTQPATGGLFGGNTQPATGGLFGGNTQPATGGLFGGNTQPATGGLFGGNTQPATGGLFGGNTQPATGGLFGGNTQPATGGLFGGNTQPATGGLFGGNTQPATGGLFGGNTQPATGGLFGGNTQPATGGLFGGNTQPATGGLFGGNTQPATGGLFGGNTQPATC
modifications: Atto488-maleimide on the additional C-terminal cysteine

target: XtNup98 FG domain (Xenopus tropicalis); assay: partitioning into a condensed FG phase (confocal laser scanning microscopy); Atto488-labelled guest (0.125-3 μM, below its saturation concentration) mixed on ice with unlabelled host FG domain (about 5 μM), phase separation at 21 °C (294 K); 20 mM NaPi pH 6.8, 5 mM DTT, 150 mM NaCl (also 300 and 600 mM for the host prf.GLFG_(52×12)[+GLEBS]); partition coefficient = signal inside FG phase : signal in buffer; both purified

binding	Binder
binds	B1
binds	B2
binds	B3
binds	B4
binds	B5
binds	B6
binds	B7
binds	B8

target: TtMac98A FG domain (Tetrahymena thermophila); assay: as above

binding	Binder
binds	B1
binds	B2
binds	B3
binds	B4
binds	B5
binds	B6
binds	B7
binds	B8

target: ScNup116 FG domain (Saccharomyces cerevisiae); assay: as above

binding	Binder
binds	B1
binds	B2
binds	B3
binds	B4
binds	B5
binds	B6
binds	B7
binds	B8

target: BfNup98 FG domain (Branchiostoma floridae); assay: as above

binding	Binder
binds	B1
binds	B2
binds	B3
binds	B4
binds	B5
binds	B6
binds	B7
binds	B8

target: AtNup98B FG domain (Arabidopsis thaliana); assay: as above

binding	Binder
binds	B1
binds	B2
binds	B3
binds	B4
binds	B5
binds	B6
binds	B7
binds	B8
